No constants are given. Whether binding was seen depends on the method and setting. Binding seen in cells or lysates may run through a third protein. Binding calls can cover weak binding; strength is not graded here.
Molecular target: JNK (mouse (endogenous in BV2 and primary mouse microglia))
Assay: co-IP; immunoprecipitation from microglia (BV2 cells and primary microglia), DUSP6 detected by Western blot; cells with or without silencing of TCONS_00145741 and with 20 U/ml thrombin for 24 h (Figure 5D); no protocol in the methods

- binding: binds
B1: DUSP6 (enzyme, UniProt Q9DBB1 1-381)
chain: MIDTLRPVPFASEMAICKTVSWLNEQLELGNERLLLMDCRPQELYESSHIESAINVAIPGIMLRRLQKGNLPVRALFTRCEDRDRFTRRCGTDTVVLYDENSSDWNENTGGESVLGLLLKKLKDEGCRAFYLEGGFSKFQAEFALHCETNLDGSCSSSSPPLPVLGLGGLRISSDSSSDIESDLDRDPNSATDSDGSPLSNSQPSFPVEILPFLYLGCAKDSTNLDVLEEFGIKYILNVTPNLPNLFENAGEFKYKQIPISDHWSQNLSQFFPEAISFIDEARGKNCGVLVHCLAGISRSVTVTVAYLMQKLNLSMNDAYDIVKMKKSNISPNFNFMGQLLDFERTLGLSSPCDNRVPTPQLYFTTPSNQNVYQVDSLQST

— PMC8809462
